The supplement of paper PMC10849652
The other results are listed elsewhere or left out.

By UniProt entry, the sequences of proteins in these tests, tags left out. Where a name states a change or a piece, a line headed by the entry shows the natural chain unless it says otherwise.
UniProt P53384: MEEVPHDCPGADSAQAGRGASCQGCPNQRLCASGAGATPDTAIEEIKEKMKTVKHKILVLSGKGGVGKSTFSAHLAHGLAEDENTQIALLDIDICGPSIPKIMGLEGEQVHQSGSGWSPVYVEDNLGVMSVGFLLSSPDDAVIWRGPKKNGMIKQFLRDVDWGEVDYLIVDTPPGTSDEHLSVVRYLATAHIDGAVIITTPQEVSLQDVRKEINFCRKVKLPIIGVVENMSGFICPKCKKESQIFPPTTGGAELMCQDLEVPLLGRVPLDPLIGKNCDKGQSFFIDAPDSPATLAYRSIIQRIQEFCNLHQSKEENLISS
UniProt Q9NPF4: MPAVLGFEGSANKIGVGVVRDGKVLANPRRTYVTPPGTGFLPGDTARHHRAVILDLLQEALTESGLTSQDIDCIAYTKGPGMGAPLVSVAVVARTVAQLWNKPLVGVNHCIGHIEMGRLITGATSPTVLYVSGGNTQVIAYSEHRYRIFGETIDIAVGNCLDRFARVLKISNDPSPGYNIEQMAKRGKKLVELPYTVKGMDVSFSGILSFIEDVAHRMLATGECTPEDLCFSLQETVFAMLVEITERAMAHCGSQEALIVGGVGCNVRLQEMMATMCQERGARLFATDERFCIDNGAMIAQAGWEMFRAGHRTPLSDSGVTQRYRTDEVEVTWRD
UniProt Q9Y266: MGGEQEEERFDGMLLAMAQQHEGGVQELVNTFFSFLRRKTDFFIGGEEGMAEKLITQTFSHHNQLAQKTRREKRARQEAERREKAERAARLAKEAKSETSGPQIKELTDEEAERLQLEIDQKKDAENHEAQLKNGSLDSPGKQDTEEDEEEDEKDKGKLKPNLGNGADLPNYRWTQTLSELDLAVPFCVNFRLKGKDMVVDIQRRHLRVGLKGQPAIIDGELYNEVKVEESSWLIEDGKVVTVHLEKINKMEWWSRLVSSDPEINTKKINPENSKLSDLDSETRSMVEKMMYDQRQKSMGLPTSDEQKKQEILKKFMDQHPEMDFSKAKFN
UniProt Q5SRE5: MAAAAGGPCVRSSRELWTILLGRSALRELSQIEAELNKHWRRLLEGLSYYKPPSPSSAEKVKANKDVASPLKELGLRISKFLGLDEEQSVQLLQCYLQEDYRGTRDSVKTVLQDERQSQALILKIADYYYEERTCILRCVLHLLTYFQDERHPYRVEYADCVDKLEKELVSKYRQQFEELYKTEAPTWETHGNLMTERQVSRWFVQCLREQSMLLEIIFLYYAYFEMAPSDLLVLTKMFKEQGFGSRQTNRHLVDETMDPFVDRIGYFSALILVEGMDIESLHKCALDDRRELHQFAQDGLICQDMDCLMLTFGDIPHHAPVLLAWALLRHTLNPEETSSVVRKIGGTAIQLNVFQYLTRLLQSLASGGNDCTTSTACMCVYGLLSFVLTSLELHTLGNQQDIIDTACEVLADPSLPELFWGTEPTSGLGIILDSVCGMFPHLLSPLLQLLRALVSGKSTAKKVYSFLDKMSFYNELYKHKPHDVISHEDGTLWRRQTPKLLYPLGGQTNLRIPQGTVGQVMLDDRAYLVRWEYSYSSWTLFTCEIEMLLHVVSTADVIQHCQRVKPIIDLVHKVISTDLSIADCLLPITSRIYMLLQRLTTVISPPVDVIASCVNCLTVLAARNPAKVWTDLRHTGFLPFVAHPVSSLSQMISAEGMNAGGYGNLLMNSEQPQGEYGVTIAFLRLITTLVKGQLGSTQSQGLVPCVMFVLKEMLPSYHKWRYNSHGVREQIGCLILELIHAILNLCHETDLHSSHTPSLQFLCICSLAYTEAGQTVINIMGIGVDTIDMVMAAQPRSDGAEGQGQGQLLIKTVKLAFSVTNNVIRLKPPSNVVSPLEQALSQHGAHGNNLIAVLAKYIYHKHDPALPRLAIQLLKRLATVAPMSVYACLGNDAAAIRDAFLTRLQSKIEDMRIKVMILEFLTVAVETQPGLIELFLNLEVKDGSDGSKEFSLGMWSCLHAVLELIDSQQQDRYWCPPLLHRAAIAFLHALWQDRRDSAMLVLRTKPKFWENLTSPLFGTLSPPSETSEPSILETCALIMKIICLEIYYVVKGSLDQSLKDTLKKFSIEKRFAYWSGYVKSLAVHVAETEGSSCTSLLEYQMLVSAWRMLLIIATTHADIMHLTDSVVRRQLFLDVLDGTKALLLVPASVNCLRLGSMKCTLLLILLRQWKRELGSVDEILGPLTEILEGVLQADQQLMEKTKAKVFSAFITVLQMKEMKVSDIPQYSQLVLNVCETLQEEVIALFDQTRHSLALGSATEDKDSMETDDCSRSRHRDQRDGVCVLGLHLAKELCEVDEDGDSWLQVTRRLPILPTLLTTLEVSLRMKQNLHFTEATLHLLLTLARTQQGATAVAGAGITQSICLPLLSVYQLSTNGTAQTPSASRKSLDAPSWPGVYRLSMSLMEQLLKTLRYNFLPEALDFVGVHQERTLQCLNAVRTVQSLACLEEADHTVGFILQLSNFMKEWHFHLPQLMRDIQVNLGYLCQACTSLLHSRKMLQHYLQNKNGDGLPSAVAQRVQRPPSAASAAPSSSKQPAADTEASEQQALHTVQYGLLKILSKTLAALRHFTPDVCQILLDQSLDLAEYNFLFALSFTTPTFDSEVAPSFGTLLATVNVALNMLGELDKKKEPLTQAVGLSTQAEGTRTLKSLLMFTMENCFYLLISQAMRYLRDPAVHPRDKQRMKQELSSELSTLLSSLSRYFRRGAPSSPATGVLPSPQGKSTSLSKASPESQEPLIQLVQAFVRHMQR
UniProt Q86UY8: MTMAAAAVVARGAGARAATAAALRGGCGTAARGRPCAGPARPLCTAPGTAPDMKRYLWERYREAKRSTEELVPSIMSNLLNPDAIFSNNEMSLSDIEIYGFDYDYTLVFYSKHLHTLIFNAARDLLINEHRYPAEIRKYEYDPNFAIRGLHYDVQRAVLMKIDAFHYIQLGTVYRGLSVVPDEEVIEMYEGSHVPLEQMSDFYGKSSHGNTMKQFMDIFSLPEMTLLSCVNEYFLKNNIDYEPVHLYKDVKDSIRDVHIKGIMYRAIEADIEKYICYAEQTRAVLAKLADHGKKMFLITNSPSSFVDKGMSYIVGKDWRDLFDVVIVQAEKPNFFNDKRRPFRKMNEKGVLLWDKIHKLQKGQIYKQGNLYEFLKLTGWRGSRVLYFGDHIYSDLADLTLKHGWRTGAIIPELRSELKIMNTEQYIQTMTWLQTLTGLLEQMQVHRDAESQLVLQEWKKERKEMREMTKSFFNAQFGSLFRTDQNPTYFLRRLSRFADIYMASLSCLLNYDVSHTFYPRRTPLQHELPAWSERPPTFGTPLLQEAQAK
UniProt Q9H6K4: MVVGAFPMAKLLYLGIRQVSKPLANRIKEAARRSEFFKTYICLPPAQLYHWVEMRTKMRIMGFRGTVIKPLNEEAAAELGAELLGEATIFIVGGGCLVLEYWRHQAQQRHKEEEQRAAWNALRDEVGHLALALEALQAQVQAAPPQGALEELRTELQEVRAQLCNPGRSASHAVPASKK
UniProt O14841: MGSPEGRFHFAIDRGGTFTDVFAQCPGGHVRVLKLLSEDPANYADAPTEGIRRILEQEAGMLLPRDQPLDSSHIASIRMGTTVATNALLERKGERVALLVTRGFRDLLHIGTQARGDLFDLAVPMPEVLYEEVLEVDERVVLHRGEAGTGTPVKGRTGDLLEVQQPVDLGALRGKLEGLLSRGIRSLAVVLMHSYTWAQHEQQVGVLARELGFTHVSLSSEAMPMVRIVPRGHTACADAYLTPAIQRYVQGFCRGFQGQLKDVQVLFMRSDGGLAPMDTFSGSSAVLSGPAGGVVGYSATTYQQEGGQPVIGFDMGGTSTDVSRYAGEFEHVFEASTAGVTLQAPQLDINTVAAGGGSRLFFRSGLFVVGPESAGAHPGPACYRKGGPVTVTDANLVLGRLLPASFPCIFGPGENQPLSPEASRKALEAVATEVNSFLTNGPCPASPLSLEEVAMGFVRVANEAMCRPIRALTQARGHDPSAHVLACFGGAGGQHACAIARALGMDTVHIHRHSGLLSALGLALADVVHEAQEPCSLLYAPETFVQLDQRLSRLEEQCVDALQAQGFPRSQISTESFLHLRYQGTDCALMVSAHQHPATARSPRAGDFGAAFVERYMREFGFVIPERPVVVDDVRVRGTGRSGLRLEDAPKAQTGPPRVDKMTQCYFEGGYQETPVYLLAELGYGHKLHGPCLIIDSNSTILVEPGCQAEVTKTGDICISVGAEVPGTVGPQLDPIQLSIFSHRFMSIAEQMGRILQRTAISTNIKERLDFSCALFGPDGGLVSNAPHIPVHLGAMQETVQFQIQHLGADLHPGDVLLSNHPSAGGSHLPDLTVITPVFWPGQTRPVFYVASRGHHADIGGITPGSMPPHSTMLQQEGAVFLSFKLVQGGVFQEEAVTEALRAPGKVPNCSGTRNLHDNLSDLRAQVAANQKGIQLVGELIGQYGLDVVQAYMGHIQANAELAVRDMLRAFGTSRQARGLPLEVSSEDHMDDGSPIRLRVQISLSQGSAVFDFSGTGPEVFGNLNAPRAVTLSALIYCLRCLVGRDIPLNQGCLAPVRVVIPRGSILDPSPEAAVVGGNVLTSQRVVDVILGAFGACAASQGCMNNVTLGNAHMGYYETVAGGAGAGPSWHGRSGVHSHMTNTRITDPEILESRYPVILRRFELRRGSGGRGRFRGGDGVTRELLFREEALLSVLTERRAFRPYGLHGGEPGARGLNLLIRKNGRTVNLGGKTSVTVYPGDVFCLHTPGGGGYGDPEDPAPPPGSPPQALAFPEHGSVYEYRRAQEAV
UniProt Q9NV35: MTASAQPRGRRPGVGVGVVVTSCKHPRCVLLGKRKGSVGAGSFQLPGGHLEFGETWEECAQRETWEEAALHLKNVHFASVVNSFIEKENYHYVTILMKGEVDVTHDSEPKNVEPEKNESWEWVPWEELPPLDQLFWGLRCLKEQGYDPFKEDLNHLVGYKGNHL
UniProt Q9BSD7: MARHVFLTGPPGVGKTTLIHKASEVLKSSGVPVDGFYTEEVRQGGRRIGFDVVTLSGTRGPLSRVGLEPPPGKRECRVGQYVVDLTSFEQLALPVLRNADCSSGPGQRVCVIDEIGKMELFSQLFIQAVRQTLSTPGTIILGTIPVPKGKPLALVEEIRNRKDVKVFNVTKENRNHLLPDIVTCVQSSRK
UniProt Q9BXS6: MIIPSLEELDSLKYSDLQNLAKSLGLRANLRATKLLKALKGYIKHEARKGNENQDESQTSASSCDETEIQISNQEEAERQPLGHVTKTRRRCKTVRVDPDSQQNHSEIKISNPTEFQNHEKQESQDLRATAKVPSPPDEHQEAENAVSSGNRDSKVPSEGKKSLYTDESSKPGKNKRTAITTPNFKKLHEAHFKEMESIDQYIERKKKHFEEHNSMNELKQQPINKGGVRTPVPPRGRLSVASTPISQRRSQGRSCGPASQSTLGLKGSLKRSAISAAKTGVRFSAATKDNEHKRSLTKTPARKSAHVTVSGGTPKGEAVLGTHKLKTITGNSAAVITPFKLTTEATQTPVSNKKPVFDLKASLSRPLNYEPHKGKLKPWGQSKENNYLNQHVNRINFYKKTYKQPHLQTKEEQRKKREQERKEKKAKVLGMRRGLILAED
UniProt O15294: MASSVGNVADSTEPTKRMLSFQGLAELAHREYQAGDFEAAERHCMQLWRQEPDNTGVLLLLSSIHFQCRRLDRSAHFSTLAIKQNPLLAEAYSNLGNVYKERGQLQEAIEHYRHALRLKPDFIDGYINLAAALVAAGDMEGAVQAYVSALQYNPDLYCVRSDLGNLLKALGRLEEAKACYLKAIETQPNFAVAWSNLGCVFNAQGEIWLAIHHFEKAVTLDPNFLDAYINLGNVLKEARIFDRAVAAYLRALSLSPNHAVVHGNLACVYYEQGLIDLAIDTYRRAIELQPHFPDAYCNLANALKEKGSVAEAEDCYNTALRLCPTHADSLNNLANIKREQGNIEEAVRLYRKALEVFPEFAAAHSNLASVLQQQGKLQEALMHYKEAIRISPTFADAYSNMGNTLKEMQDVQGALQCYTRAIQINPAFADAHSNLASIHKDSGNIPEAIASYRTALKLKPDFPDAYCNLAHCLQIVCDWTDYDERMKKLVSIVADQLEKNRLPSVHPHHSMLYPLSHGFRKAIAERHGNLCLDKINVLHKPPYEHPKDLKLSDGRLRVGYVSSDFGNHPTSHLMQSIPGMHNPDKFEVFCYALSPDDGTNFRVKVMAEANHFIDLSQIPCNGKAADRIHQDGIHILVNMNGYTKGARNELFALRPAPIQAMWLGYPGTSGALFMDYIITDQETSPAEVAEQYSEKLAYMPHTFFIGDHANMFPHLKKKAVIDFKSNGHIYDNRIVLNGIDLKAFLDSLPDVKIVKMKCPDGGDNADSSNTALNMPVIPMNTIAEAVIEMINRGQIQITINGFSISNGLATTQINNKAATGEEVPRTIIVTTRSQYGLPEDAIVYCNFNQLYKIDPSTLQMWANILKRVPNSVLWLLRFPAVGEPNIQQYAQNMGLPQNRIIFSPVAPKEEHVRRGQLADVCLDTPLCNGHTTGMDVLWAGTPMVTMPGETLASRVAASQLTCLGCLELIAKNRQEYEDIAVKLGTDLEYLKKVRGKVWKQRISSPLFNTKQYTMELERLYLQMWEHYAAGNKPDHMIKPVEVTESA

What was measured:
Experiment in all cases: log2 fold change, soluble protein after heating vs DMSO (PISA); higher = thermal stabilisation; K562 cells, 10 uM, 30 min; active = over 0.2 and 3.5 SD of the protein, either way, in both replicates (recomputed)
[1] = compound: CN1CCN(CCOc2cc(OC3CCOCC3)c3c(Nc4c(Cl)ccc5c4OCO5)ncnc3c2)CC1 [saracatinib]
Procedure, shortened: (§1)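 Values are thermal stability changes relative to control samples and are taken from duplicates. They are stated as log2 fold changes. Before quantification by TMTpro 16plex LC-MS/MS with equalised channel sums, K562 cells at 2×10^6 cells/mL were treated with 10 μM compound for 30 min, heated in aliquots for 3 min across 48°C-58°C, pooled, extracted in PBS with 0.5% NP-40 at 4°C, and centrifuged at 21,000xg for 90 min to give the soluble supernatant.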

[2] = compound: CN1CCN(c2nc(C3=C(c4c[nH]c5ccccc45)C(=O)NC3=O)c3ccccc3n2)CC1 [sotrastaurin]
Procedure, shortened: as §1

[3] = compound: CN1CC[C@H](c2c(O)cc(O)c3c(=O)cc(-c4ccccc4Cl)oc23)[C@H](O)C1 [alvocidib]
Procedure, shortened: as §1

[4] = compound: CN1CCc2c(c3ccccc3n2Cc2ccc(C(=O)NO)cc2)C1 [Tubastatin A]
Procedure, shortened: as §1

[5] = compound: CNC(=O)C1=CC=CC=C1NC2=NC(=NC=C2Cl)NC3=C(C=C(C=C3)N4CCOCC4)OC
Procedure, shortened: as §1

[6] = compound: CNC(=O)c1ccc(Nc2ncc(C(F)(F)F)c(NCc3nccnc3N(C)S(C)(=O)=O)n2)cc1 [defactinib]
Procedure, shortened: as §1

[7] = compound: CNCc1ccc(-c2[nH]c3cc(F)cc4c3c2CCNC4=O)cc1 [rucaparib]
Procedure, shortened: as §1

[8] = compound: CNc1nc(-c2ccc3c(N)n[nH]c3c2)cc(N2C[C@@H](C(=O)NC3CCCCC3)CC[C@H]2C)n1
Procedure, shortened: as §1

[9] = compound: COC(=O)N[C@@H](C)CNc1nccc(-c2cn(C(C)C)nc2-c2cc(Cl)cc(NS(C)(=O)=O)c2F)n1 [encorafenib]
Procedure, shortened: as §1

[10] = compound: COC(=O)[C@H](CCSC)NC(=O)C1=C(C=C(C=C1)NC[C@H](CS)N)C2=CC=CC=C2
Procedure, shortened: as §1

Measured: log2 fold change

NUP155 (UniProt O75694)
inactive: [1] -0.055 | [2] -0.008 | [3] -0.068 | [4] 0.012 | [5] -0.029 | [6] -0.057 | [7] -0.003 | [8] 0.02 | [9] 0.084 | [10] -0.053

PA2G4 (UniProt Q9UQ80)
inactive: [1] -0.031 | [2] 0.005 | [3] -0.035 | [4] 0.045 | [5] 0.006 | [6] 0.017 | [7] -0.036 | [8] 0.068 | [9] 0.046 | [10] -0.019

NUDT5 (UniProt Q9UKK9)
inactive: [1] 0.039 | [2] 0.018 | [3] 0.02 | [4] -0.026 | [5] -0.035 | [6] -0.011 | [7] -0.092 | [8] -0.045 | [9] 0.002 | [10] 0.014

NUP153 (UniProt P49790)
inactive: [1] 0.059 | [2] -0.04 | [3] 0.025 | [4] -0.005 | [5] 0.012 | [6] 0.002 | [7] 0.016 | [8] -0.07 | [9] 0.026 | [10] 0.052

OCIAD1 (UniProt D6RDK6)
inactive: [1] 0 | [2] 0.055 | [3] 0.059 | [4] -0.051 | [5] -0.111 | [6] 0.008 | [7] -0.311 | [8] -0.136 | [9] 0.121 | [10] 0.101

NT5DC2 isoform 2 (UniProt Q9H857)
inactive: [1] 0.026 | [2] 0.086 | [3] -0.005 | [4] -0.035 | [5] -0.001 | [6] -0.016 | [7] -0.009 | [8] -0.036 | [9] 0.008 | [10] -0.004

NUP54 (UniProt Q7Z3B4)
inactive: [1] -0.126 | [2] -0.042 | [3] -0.102 | [4] 0.073 | [5] -0.063 | [6] -0.058 | [7] 0.044 | [8] 0.073 | [9] 0.074 | [10] -0.02

PAAT (UniProt Q9H8K7)
inactive: [1] 0.088 | [2] -0.024 | [3] -0.017 | [4] 0.025 | [5] -0.031 | [6] -0.003 | [7] -0.188 | [8] -0.092 | [9] 0.047 | [10] 0.017

NSUN6 (UniProt Q8TEA1)
inactive: [1] -0.005 | [2] 0.018 | [3] -0.016 | [4] -0.041 | [5] -0.027 | [6] -0.052 | [7] -0.042 | [8] 0.006 | [9] 0.016 | [10] 0.015

NUBP1 (UniProt P53384)
inactive: [1] 0.011 | [2] 0.039 | [3] -0.067 | [4] -0.007 | [5] -0.009 | [6] -0.054 | [7] -0.039 | [8] 0.013 | [9] 0.005 | [10] -0.089

OSGEP (UniProt Q9NPF4)
inactive: [1] 0.039 | [2] 0.057 | [3] -0.021 | [4] -0.065 | [5] -0.033 | [6] -0.009 | [7] -0.052 | [8] -0.005 | [9] 0.001 | [10] 0.021

2 records drawn at random from those above, as already listed:
NUBP1 (UniProt P53384)
inactive: [1] 0.011 | [2] 0.039 | [3] -0.067 | [4] -0.007 | [5] -0.009 | [6] -0.054 | [7] -0.039 | [8] 0.013 | [9] 0.005 | [10] -0.089

PAAT (UniProt Q9H8K7)
inactive: [1] 0.088 | [2] -0.024 | [3] -0.017 | [4] 0.025 | [5] -0.031 | [6] -0.003 | [7] -0.188 | [8] -0.092 | [9] 0.047 | [10] 0.017

Following part.

NT5C3A (UniProt Q9H0P0)
inactive: [1] -0.138 | [2] -0.207 | [3] 0.042 | [4] 0.057 | [5] 0.072 | [6] 0.013 | [7] 0.143 | [8] 0.153 | [9] 0.169 | [10] -0.067

NUFIP2 (UniProt Q7Z417)
inactive: [1] 0.05 | [2] 0.01 | [3] 0.105 | [4] -0.008 | [5] 0.002 | [6] 0.075 | [7] 0.154 | [8] -0.026 | [9] 0.009 | [10] 0

NUP133 (UniProt Q8WUM0)
inactive: [1] -0.03 | [2] -0.022 | [3] -0.039 | [4] 0.197 | [5] -0.001 | [6] -0.002 | [7] 0.119 | [8] -0.078 | [9] 0.026 | [10] -0.135

NUCB2 (UniProt P80303)
inactive: [1] 0.055 | [2] 0.044 | [3] 0.006 | [4] -0.017 | [5] -0.011 | [6] 0.011 | [7] -0.063 | [8] -0.053 | [9] -0.017 | [10] 0.007

NUDC (UniProt Q9Y266)
inactive: [1] 0.017 | [2] 0.03 | [3] -0.066 | [4] 0 | [5] 0.012 | [6] -0.011 | [7] -0.074 | [8] 0.021 | [9] 0.051 | [10] 0.026

NUP188 (UniProt Q5SRE5)
inactive: [1] -0.015 | [2] -0.064 | [3] -0.113 | [4] 0.048 | [5] -0.002 | [6] -0.104 | [7] 0.024 | [8] 0.045 | [9] 0.029 | [10] -0.084

NUS1 (UniProt Q96E22)
inactive: [1] 0.042 | [2] 0.049 | [3] -0.004 | [4] -0.066 | [5] 0.047 | [6] 0.027 | [7] -0.06 | [8] -0.023 | [9] 0.024 | [10] 0.001

NT5DC3 (UniProt Q86UY8)
inactive: [1] 0.041 | [2] 0.02 | [3] -0.081 | [4] -0.048 | [5] -0.017 | [6] -0.017 | [7] -0.063 | [8] -0.035 | [9] -0.015 | [10] 0.021

OPA3 (UniProt Q9H6K4)
inactive: [1] 0.065 | [2] 0.04 | [3] 0.05 | [4] -0.056 | [5] -0.053 | [6] -0.047 | [7] -0.025 | [8] -0.084 | [9] -0.081 | [10] 0.064

OSBPL9 (UniProt Q96SU4)
inactive: [1] -0.171 | [2] -0.23 | [3] 0.061 | [4] 0.097 | [5] -0.041 | [6] -0.022 | [7] 0.298 | [8] 0.422 | [9] 0.133 | [10] -0.085

OPLAH (UniProt O14841)
inactive: [1] 0.006 | [2] 0.037 | [3] -0.039 | [4] -0.009 | [5] -0.01 | [6] -0.005 | [7] 0.012 | [8] -0.026 | [9] -0.02 | [10] 0.006

NSRP1 (UniProt Q9H0G5)
inactive: [1] -0.001 | [2] 0.038 | [3] 0.066 | [4] 0.002 | [5] -0.082 | [6] 0.064 | [7] 0.197 | [8] 0.015 | [9] 0.046 | [10] 0.001

NUBPL (UniProt Q8TB37)
inactive: [1] 0.017 | [2] -0.007 | [3] 0.015 | [4] -0.042 | [5] 0.013 | [6] 0.024 | [7] 0.021 | [8] 0.026 | [9] 0 | [10] 0.048

NUDT15 (UniProt Q9NV35)
inactive: [1] 0.05 | [2] -0.008 | [3] -0.161 | [4] 0.004 | [5] 0.009 | [6] -0.016 | [7] -0.009 | [8] -0.027 | [9] 0.005 | [10] -0.021

OCIAD1 (UniProt Q9NX40)
inactive: [1] 0.04 | [2] 0.031 | [3] -0.049 | [4] -0.009 | [5] -0.008 | [6] -0.047 | [7] -0.055 | [8] -0.03 | [9] -0.034 | [10] 0.032

NTPCR (UniProt Q9BSD7)
inactive: [1] -0.001 | [2] 0.02 | [3] -0.041 | [4] -0.039 | [5] -0.001 | [6] -0.035 | [7] -0.077 | [8] 0.028 | [9] -0.052 | [10] -0.014

NUSAP1 (UniProt Q9BXS6)
inactive: [1] -0.068 | [2] -0.011 | [3] 0.189 | [4] 0.126 | [5] -0.006 | [6] 0.03 | [7] -0.04 | [8] -0.022 | [9] 0.121 | [10] -0.01

OGT (UniProt O15294)
inactive: [1] -0.054 | [2] -0.105 | [3] -0.086 | [4] -0.001 | [5] -0.032 | [6] -0.098 | [7] 0.054 | [8] 0.01 | [9] 0.096 | [10] -0.046

OXCT1 (UniProt P55809)
inactive: [1] 0.023 | [2] 0.002 | [3] -0.06 | [4] -0.002 | [5] 0.028 | [6] -0.039 | [7] -0.08 | [8] 0.014 | [9] -0.019 | [10] 0.006
